These are yes or no findings as the source states them, for the method shown. In cells and extracts the contact can be indirect. Some entries that bind do so weakly or less than the wild type. Sequences can lack the tags named with a protein.
B1: HA-tagged ALK5 (receptor, UniProt P36897 34-503)
chain: LQCFCHLCTKDNFTCVTDGLCFVSVTETTDKVIHNSMCIAEIDLIPRDRPFVCAPSSKTGSVTTTYCCNQDHCNKIELPTTVKSSPGLGPVELAAVIAGPVCFVCISLMLMVYICHNRTVIHHRVPNEEDPSLDRPFISEGTTLKDLIYDMTTSGSGSGLPLLVQRTIARTIVLQESIGKGRFGEVWRGKWRGEEVAVKIFSSREERSWFREAEIYQTVMLRHENILGFIAADNKDNGTWTQLWLVSDYHEHGSLFDYLNRYTVTVEGMIKLALSTASGLAHLHMEIVGTQGKPAIAHRDLKSKNILVKKNGTCCIADLGLAVRHDSATDTIDIAPNHRVGTKRYMAPEVLDDSINMKHFESFKRADIYAMGLVFWEIARRCSIGGIHEDYQLPYYDLVPSDPSVEEMRKVVCEQKLRPNIPNRWQSCEALRVMAKIMRECWYANGAARLTALRIKKTLSQLSQQEGIKM

Protein sequences, listed by entry. Tags and fused reporters are not part of them. Residues count along the entry.
UniProt O00238, residues 14-502: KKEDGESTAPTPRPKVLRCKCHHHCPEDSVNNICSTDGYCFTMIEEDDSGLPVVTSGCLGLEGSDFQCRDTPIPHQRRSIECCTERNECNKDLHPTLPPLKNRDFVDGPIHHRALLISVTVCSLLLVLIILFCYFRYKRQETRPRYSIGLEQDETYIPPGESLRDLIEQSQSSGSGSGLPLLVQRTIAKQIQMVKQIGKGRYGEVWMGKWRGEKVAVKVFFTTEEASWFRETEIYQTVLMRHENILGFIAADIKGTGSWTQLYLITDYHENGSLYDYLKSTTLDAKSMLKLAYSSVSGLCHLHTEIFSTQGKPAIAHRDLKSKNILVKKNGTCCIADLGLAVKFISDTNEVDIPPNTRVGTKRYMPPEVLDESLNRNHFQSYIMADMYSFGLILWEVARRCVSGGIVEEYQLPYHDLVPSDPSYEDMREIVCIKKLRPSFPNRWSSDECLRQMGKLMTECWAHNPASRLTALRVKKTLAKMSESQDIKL

Columns and labels:
[1] = target: T1, Myc-tagged follistatin-like 1 (Fstl1) (mouse) (UniProt Q62356); assay: co-IP; HEK293 cells co-transfected with Myc-Fstl1 and HA-tagged receptor, 48 h; whole cell lysate precipitated with anti-c-Myc antibody and Protein A/G agarose at 4°C; blot with anti-HA
T1 sequence: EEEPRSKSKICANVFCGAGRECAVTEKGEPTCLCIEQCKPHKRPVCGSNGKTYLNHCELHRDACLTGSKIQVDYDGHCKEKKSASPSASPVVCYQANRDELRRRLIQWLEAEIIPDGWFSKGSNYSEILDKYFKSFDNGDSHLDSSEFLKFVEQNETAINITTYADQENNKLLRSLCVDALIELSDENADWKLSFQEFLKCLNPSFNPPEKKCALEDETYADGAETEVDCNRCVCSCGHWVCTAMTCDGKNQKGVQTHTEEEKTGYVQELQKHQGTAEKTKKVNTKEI

[2] = target: T1, Myc-tagged follistatin-like 1 (Fstl1) (mouse); assay: co-IP; COS7 cells co-transfected with Myc-Fstl1 and HA-tagged receptor, 48 h; whole cell lysate precipitated with anti-c-Myc antibody and Protein A/G agarose at 4°C; blot with anti-HA
[3] = target: T1, Myc-tagged follistatin-like 1 (Fstl1) (mouse); assay: co-IP; HEK293 cells co-transfected with Myc-Fstl1 and HA-tagged receptor, 48 h; whole cell lysate precipitated with anti-c-Myc antibody and Protein A/G agarose at 4°C; blot with anti-HA; remark: listed apart in the source

Molecule | binding [1] | binding [2] | binding [3]
HA-tagged ALK6 (from UniProt O00238 14-502) (receptor) | binds | binds | –
B1 | – | – | no binding

Reference: article PMC3317656
